According to PMC3324469, “Preparation and Characterization of the Extracellular Domain of Human Sid-1” (PLoS ONE, 2012):
Results are given in words; binding and its absence hold for the method and conditions named. Some binding calls cover weakened binding; strength is not graded here.

Molecular target: extracellular domain of human SidT1 (SidT1 ECD), glycosylated, secreted from insect cells (human) (UniProt Q9NXL6)
Assay: SEC; re-injection of the fractions containing the putative tetramer; data not shown; both purified

B1: extracellular domain of human SidT1 (SidT1 ECD), glycosylated, secreted from insect cells (domain or fragment)
chain: GAASPGHPAKSPRQPPAPRRDPFDAARGADFDHVYSGVVNLSTENIYSFNYTSQPDQVTAVRVYVNSSSENLNYPVLVVVRQQKEVLSWQVPLLFQGLYQRSYNYQEVSRTLCPSEATNETGPLQQLIFVDVASMAPLGAQYKLLVTKLKHFQLRTNVAFHFTASPSQPQYFLYKFPKDVDSVIIKVVSEMAYPCSVVSVQNIMCPVYDLDHNVEFNGVYQSMTKKAAITLQKKDFPGEQFFVVFVIKPEDYACGGSFFIQEKENQTWNLQRKKNLEVTIVPSIKES
modifications: N-linked glycosylation (sites not given)
notes: N-terminal glycine appendage left from the TEV protease site; human SidT1 (Sid-1 homolog), extracellular domain, residues 19-304 of Entrez Protein AAI17223, after signal peptidase and TEV cleavage; also called SidT1 extracellular domain; recombinant SidT1 ECD; source: Tni (usually) or Sf9 insect cells, baculovirus, secreted into the medium; not shown: His6, N-terminal, cleaved
binding: binds
